Measured values published in PubChem BioAssay AID638 (SRMLSC, 2007).
In all, about 1,300 compounds went through this assay and about 65 (5%) were called active.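 Rule for the calls: active = growth inhibition reaching a set limit at one or more tested doses; inactive = the rest.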 Some of the results follow. Potency and affinity values are given separately.

test: growth inhibition of wild-type E. coli, dose response, BW25113 wild type, OD615 (AID 638); conditions: at 100 µM (top of the series) unless noted
Method in brief: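 Material – E. coli BW25113 wild type · Medium – Kanamycin-supplemented LB broth · Doses – compound dilution series for dose-response · Incubation – 20 h compound exposure, 37 °C · Technique – optical density (absorbance) at 615 nm · Read-out basis – IC50 from 4-parameter logistic, bounds fixed 0–100% · Control set – chloramphenicol at 30 µM final as inhibition control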

Growth inhibition, inactive:
COC(=O)c1ccc(/C(O)=C(\C#N)c2nc3ccccc3s2)cc1 -7.38%
CC1CCc2nc(NC(=O)c3cc(C(C)(C)C)nn3C)sc2C1 (stereo unspecified) -12.2%
O=c1c2cccc3c2c(nn1CN1CCOCC1)-c1ccccc1-3 -1.71%
Cc1ccc(O)c(C(=O)CC(=O)c2cccc(F)c2)c1 11.9%
CCCCN(C)S(=O)(=O)c1ccc(C(=O)Nc2nnc(CSC)o2)cc1 9.84%
COc1ccc(-c2cnc(SCC(=O)Nc3ccc4c(c3)OCO4)n2Cc2ccco2)cc1 -19.6%
CCSc1nnc(NC(=O)c2nc(-c3ccccc3)n(-c3ccccc3)n2)s1 -4.83%
Cc1onc(-c2ccccc2)c1C(=O)Nc1sc2c(c1C#N)CCC2 -0.05%
O=C(NCc1ccco1)c1cnn2c1NC(c1ccc(Br)cc1)CC2C(F)(F)F (stereo unspecified) -7.73%
COc1ccc(-n2c(C)nc3c(cnn3-c3ccc(Cl)cc3)c2=O)cc1 11.4%
O=C(CS(=O)(=O)c1ccccc1)Nc1nc(-c2ccccc2)cs1 7.34%
CSCSC1=C(C#N)C(c2ccc(Cl)cc2)C(C(C)=O)=C(C)N1 (stereo unspecified) -4.61%
C=CCSc1n[nH]c(-c2ccc(OCCCC)cc2)n1 5.29%
CCOc1ccc(N(CC(=O)Nc2cccc(Cl)c2)S(=O)(=O)c2c(C)noc2C)cc1 2.24%
COc1ccc(-c2cnc(SCC(=O)Nc3cc(C)on3)n2Cc2ccco2)cc1 -5.14%
COc1ccc(-c2[nH]ncc2-c2ccc3c(c2)OCCO3)c(O)c1 -9.75%
Cc1oc2c(CN3CCCC3)c(O)ccc2c(=O)c1-c1ccc(Br)cc1 8.91%
CCOc1cc(/C=C(/C#N)c2ccc(F)cc2)ccc1OCc1ccc(C(=O)O)o1 -1.68%
CC1CCc2cc(F)ccc2N1C(=O)c1cc2nc(-c3ccco3)cc(C(F)(F)F)n2n1 (stereo unspecified) 2.56%
CC1Oc2ccccc2N(Cc2ccccc2Cl)C1=O (stereo unspecified) 0.22%
CCCSc1oc(-c2ccco2)nc1S(=O)(=O)c1ccccc1 5.15%
O=C(Oc1ccc2ccccc2c1Cl)N1CCCC1 13.7%
Cc1nnc(SC(=O)N2c3ccccc3Sc3ccccc32)s1 -6.4%
Cc1cc(SCC#N)n2nc(C)c(-c3ccccc3)c2n1 2.64%
CCN(CC)c1ccc(C(=O)n2cnc3ccccc32)cc1 10.6%
COc1ccc(Cl)cc1N(C)C(=O)CCc1nc(-c2ccc(C)cc2)no1 -1.58%
CC1=CC(C)(C)N2C(=O)C3(C(C#N)=C(N)Oc4cc(O)ccc43)c3cccc1c32 (stereo unspecified) 7.51%
Cc1ccc(O)c(-c2cc3ccccc3[nH]2)c1 11.5% [at 50 µM]
CSc1ncc(Cl)c(C(=O)C(C#N)c2nc3c(C)cc(C)cc3c(=O)[nH]2)n1 (stereo unspecified) -10.1%
O=C(Nc1ccc(Cl)cc1)N1CCC(c2nc(-c3cccs3)no2)CC1 15%
COc1c(C)cc(Br)cc1C(=O)Nc1cccc(NC(=O)c2ccco2)c1 -0.57%
CCN(CC)c1ccc(C(=O)Nc2cccc(F)c2)cc1 0.51%
O=C(Nc1ccccc1N1CCCCC1)c1cccc(F)c1 3.24%
CCOc1ccc(NS(=O)(=O)c2ccc3[nH]cc(C(=O)NC(C)CC)c(=O)c3c2)cc1 (stereo unspecified) 8.14%
CCCN(CCC)c1nc(NC2CCN(C(=O)OCC)CC2)nc(OC)n1 -1.37%
CSc1nc2ccc(NS(=O)(=O)c3ccc4c(c3)OCCO4)cc2s1 -7.17%
COc1ccc2c(c1)CCc1c(C(=O)N3CCc4ccccc4C3)noc1-2 -8.43%
N#Cc1nc(COc2ccc(Br)cc2)oc1NCCCn1ccnc1 9.86% [at 50 µM]
CCCc1cc(C(=O)Cc2ccc(C(=O)OCC)o2)c(O)cc1O 3.69%
O=C(c1cccc(F)c1)N1CCN(C(=O)c2cc(-c3ccc(Cl)cc3Cl)on2)CC1 -2.14%
N#Cc1c(NC(=O)CSc2n[nH]c(Cc3ccccc3)n2)oc(-c2ccccc2)c1-c1ccccc1 -4.93%
CC(C)(C)c1ccc(-c2nnc(SCCC#N)n2C2CCCC2)cc1 -2.58%
O=C(NC1CCCCC1)c1sc(=S)n2c1[nH]c(=O)c1ccccc12 -15.8%
CN1/C(=C\C(=O)COc2ccc3c(c2)OCO3)C(C)(C)c2ccccc21 -1.95%
CC(C)(C)NC(=O)C(c1ccco1)N(C(=O)Cn1nnc(-c2ccc(F)cc2)n1)c1cccc(F)c1 (stereo unspecified) -8.87%
Fc1cccc(Cl)c1Cn1nnc(-c2ccc3c(c2)OCO3)n1 -5.08%
Cn1c(=O)n(CCCOc2ccc(Br)cc2)c2ccccc21 9.45%
CCCOC(=O)/C(C(N)=NCc1ccccc1)=C(\O)OCCC -4.62%
CCOc1ccc2nc(N3CCCN(C(=O)Nc4ccccc4C)CC3)c(C#N)cc2c1 -13.4%
Cc1cc(C)n(-c2nc(SCC(=O)N3CCCC3)c3c4c(sc3n2)CCCC4)n1 -5.81%
O=c1c2c(nc3c(-c4cccc5ccccc45)c[nH]n13)CCC2 -1.35%
CCSCC1COC(c2cccn2Cc2ccc(C)cc2)=N1 (stereo unspecified) 10.3%
C=C(C)COc1ccc(-c2[nH]ncc2Oc2ccccc2OC)c(O)c1 14.5%
CC1CCCC(C)N1C(=O)CN1C(=O)C(C)(C)Oc2ccc(C(=O)NC3CCCCC3)cc21 (stereo unspecified) 5.29%
Cc1cc2n(n1)C(c1ccc3c(c1)OCO3)Nc1c(C)cccc1-2 (stereo unspecified) -5.6%
COc1ccc2[nH]c3c(=O)n(CCCCC(=O)N4CCCC4)c(=S)[nH]c3c2c1 -6.47%
CCn1c(SCC(=O)Nc2nc(-c3ccc(C)cc3)cs2)nnc1-c1ccccc1O -11.4%
Cc1ccc(C)c(N2CCN(C(=O)c3ccccc3Br)CC2)c1 4.19%
Cn1ncc(C#N)c1/N=C/N(Cc1ccccc1)Cc1ccccc1 -0.61%
Cc1cc(N2CCC(C)CC2)nc(-n2nc(C)cc2C)n1 -4.79%
CC1=C(C(=O)OC2CCCCCC2)C(c2ccc(C)o2)C2=C(CCCC2=O)N1 (stereo unspecified) -3.74%
Cc1ccc(Cl)cc1N1CCN(Cc2nnnn2Cc2ccco2)CC1 -0.95%
O=C(Cc1ccccc1F)Nc1nc(-c2cccs2)cs1 13.6%
CCOC(=O)c1c(C)c(C(=O)Nc2cc(OC)ccc2OC)c(C)n1CC 5.14%
CC1CCCN(S(=O)(=O)c2ccc(NC(=O)Cn3nnc(-c4ccccc4F)n3)cc2)C1 (stereo unspecified) -14.7%
CC(C)(C)c1[nH]nc2c1C(Cc1ccccc1)C(C#N)=C(N)O2 (stereo unspecified) 2.92%
COc1ccc(CNc2nc3c(c(=O)n(Cc4ccc(F)cc4)c(=O)n3C)n2C)cc1 0.52%
Cc1ccc2[nH]c(=O)c(CN(Cc3nnnn3Cc3ccccc3)C3CCCC3)cc2c1 2.98%
CCOC(=O)C1CCN(Cc2cn[nH]c2-c2ccc(C)cc2)CC1 1.66%
CCOc1cc(S(=O)(=O)n2cc(-c3ccc(F)cc3)c(N)n2)cc(OCC)c1OCC -4.64%
S=C(c1ccc(-c2ccc(Cl)c(Cl)c2)o1)N1CCOCC1 2.64%
c1ccc(-c2oc3ncnc(NCCCn4ccnc4)c3c2-c2ccccc2)cc1 6.48%
CCCCN(CCCC)C(=O)CSc1nnc(-c2cc(OC)c(OC)c(OC)c2)o1 -2.21%
COc1ccc(OC)c(S(=O)(=O)N2CCN(c3c(C)cccc3C)CC2)c1 -10%
Cc1ccccc1-c1nnc(SCc2ccccc2F)o1 -0.89%
CCn1c(CNc2cccc(Cl)c2)nnc1SCC(=O)OC1CCCCC1 2.11%
CCc1ccc2oc(=O)cc(CN(C)Cc3ccccc3)c2c1 2.47%
Cc1ccc(C)c(N2CCN(C(=O)c3cc4sccc4n3C)CC2)c1 -11%
Cc1sc2nc(CN(Cc3cccs3)C(=O)NC3CCCCC3)[nH]c(=O)c2c1C -6.58%
Cc1ccc2nc(NC(=O)CNS(=O)(=O)c3ccc(Br)s3)sc2c1 -4.36%
COc1cc(NS(=O)(=O)c2ccc(NC(=O)COc3ccccc3Cl)cc2)nc(OC)n1 -15.9%
CCCc1cc(-c2[nH]ncc2-c2ccc3c(c2)OCCCO3)c(O)cc1O 9.95%
O=C(c1ccco1)N1CCN(c2ncnc3c2[nH]c2ccc(Br)cc23)CC1 -11.1%
N#C/C(=C\c1ccc[nH]1)Sc1nc2ccccc2s1 17.3%
O=C(Nc1nnc(-c2ccccc2Cl)o1)c1cccnc1 0.28%
COC(=O)c1ccc(Oc2nc(N3CCCCC3)nc(N3CCOCC3)n2)cc1 -2.18%
O=C(C1CCCCC1)N1CCC(c2nc3c(nnn3Cc3c(F)cccc3Cl)c(=O)[nH]2)CC1 9.36%
CCOC(=O)c1ccc(NC(=O)CCc2nc(-c3ccccc3Cl)no2)cc1 10.4%
COc1cc(-c2nnc(-c3ccco3)o2)ccc1OCc1ccccc1 -6.15%
O=C(Nc1nc2ccccc2n1CCOc1ccc(Cl)cc1)c1ccco1 3.35%
Cc1ccc(Cn2ccc(NC(=O)c3cc(CC(C)C)on3)n2)cc1 0.62%

Of the compounds above, these have an NH in an aromatic ring.
Growth inhibition, inactive:
C=CCSc1n[nH]c(-c2ccc(OCCCC)cc2)n1 5.29%
COc1ccc(-c2[nH]ncc2-c2ccc3c(c2)OCCO3)c(O)c1 -9.75%
Cc1ccc(O)c(-c2cc3ccccc3[nH]2)c1 11.5% [at 50 µM]
CSc1ncc(Cl)c(C(=O)C(C#N)c2nc3c(C)cc(C)cc3c(=O)[nH]2)n1 (stereo unspecified) -10.1%
CCOc1ccc(NS(=O)(=O)c2ccc3[nH]cc(C(=O)NC(C)CC)c(=O)c3c2)cc1 (stereo unspecified) 8.14%
N#Cc1c(NC(=O)CSc2n[nH]c(Cc3ccccc3)n2)oc(-c2ccccc2)c1-c1ccccc1 -4.93%
O=C(NC1CCCCC1)c1sc(=S)n2c1[nH]c(=O)c1ccccc12 -15.8%
O=c1c2c(nc3c(-c4cccc5ccccc45)c[nH]n13)CCC2 -1.35%
C=C(C)COc1ccc(-c2[nH]ncc2Oc2ccccc2OC)c(O)c1 14.5%
COc1ccc2[nH]c3c(=O)n(CCCCC(=O)N4CCCC4)c(=S)[nH]c3c2c1 -6.47%
CC(C)(C)c1[nH]nc2c1C(Cc1ccccc1)C(C#N)=C(N)O2 (stereo unspecified) 2.92%
Cc1ccc2[nH]c(=O)c(CN(Cc3nnnn3Cc3ccccc3)C3CCCC3)cc2c1 2.98%
CCOC(=O)C1CCN(Cc2cn[nH]c2-c2ccc(C)cc2)CC1 1.66%
Cc1sc2nc(CN(Cc3cccs3)C(=O)NC3CCCCC3)[nH]c(=O)c2c1C -6.58%
CCCc1cc(-c2[nH]ncc2-c2ccc3c(c2)OCCCO3)c(O)cc1O 9.95%
O=C(c1ccco1)N1CCN(c2ncnc3c2[nH]c2ccc(Br)cc23)CC1 -11.1%
N#C/C(=C\c1ccc[nH]1)Sc1nc2ccccc2s1 17.3%
O=C(C1CCCCC1)N1CCC(c2nc3c(nnn3Cc3c(F)cccc3Cl)c(=O)[nH]2)CC1 9.36%

Quoted at random: 2 entries already listed.
Growth inhibition, inactive:
CC1Oc2ccccc2N(Cc2ccccc2Cl)C1=O (stereo unspecified) 0.22%
CCCOC(=O)/C(C(N)=NCc1ccccc1)=C(\O)OCCC -4.62%
